The supplement of paper PMC3334620
Over roughly 33,000 sequences, “E-score (-0.5 to 0.5)” has its median near -0.0034; the highest 2% begin near 0.25. The list shows a part of the results.

Biological target: T1, Yap3 (UniProt P38749)
T1 sequence: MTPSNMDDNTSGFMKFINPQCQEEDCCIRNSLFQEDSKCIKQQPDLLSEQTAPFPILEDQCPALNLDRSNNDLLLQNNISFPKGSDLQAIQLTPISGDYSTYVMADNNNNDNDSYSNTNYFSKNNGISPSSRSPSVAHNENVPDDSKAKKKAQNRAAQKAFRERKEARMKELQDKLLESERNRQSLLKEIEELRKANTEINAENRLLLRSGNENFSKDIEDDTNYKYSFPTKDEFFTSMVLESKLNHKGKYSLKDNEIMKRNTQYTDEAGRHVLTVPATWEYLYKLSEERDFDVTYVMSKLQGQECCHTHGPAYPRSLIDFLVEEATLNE
Assay: PBM E-score (8-mer binding enrichment) (E-score (-0.5 to 0.5)); higher = stronger / more preferred TF binding
Details: protein concentration: 100 nM; construct: GST-full length
Summary of the method: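 Each ungapped eight-base word and its reverse complement, pooled, received an E-score from the Universal PBM Analysis Suite. Underlying scans, normalised with masliner, recorded fluorescent anti-GST bound to GST-tagged yeast transcription factors. These were applied at about 100-200 nM to universal all-10-mer Agilent arrays double-stranded by primer extension.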

Sequence	PBM E-score
ACAGACGT	-0.147
CATGAACA	0.0723
AATTCTCC	0.0757
CCCTGGAC	-0.206
GCCTATTA	0.205
CACGACAG	-0.0208
GATAGAGA	0.106
ACCGGAAT	0.0182
GAACGGAA	0.0365
CAAATGAG	-0.0385
AGTATGAG	0.0598
AGGCCGCG	-0.124
CAAACTCG	0.00872
ATTCGCAC	0.0279
CGTTAGAC	-0.0418
AATGGTTG	0.0504
AGCCCGTC	-0.315
AAAACGAA	0.224
CGGATGCC	-0.106
AATATTGG	0.165
AGTGTGTC	-0.0449
CGCAAGGA	0.0605
GGGCTATA	-0.226
ACACCCGT	-0.117
GTCCGAAA	0.171

Sequence	PBM E-score
ACGACAAT	0.129
AAGGTGGT	0.026
ACCACTAA	0.209
GCATGATA	0.184
CCAGTCAG	-0.119
CGAACAAG	0.0425
ATTAGAGA	0.041
ATACGACG	0.0574
CAACGTAG	0.051
CCGTTAGA	0.0691
GCAGACGA	-0.11
TGTGCACA	-0.175
CCCGTTGC	-0.23
GCTGCGAC	-0.0259
GCAAGTTA	0.0548
GCGGCACC	-0.0717
CTGACCCA	-0.19
CGCTCTTA	0.137
GGTTTGAA	0.0872
CATAGTGC	0.0117
CGCGGAGC	-0.179
ATATTCCG	0.181
AAGTTAGC	0.151
ACTGATAA	0.187
CTATTCTC	0.134

Reprinted at random: five records from the list
Sequence	PBM E-score
ATTAGAGA	0.041
ATACGACG	0.0574
GCAGACGA	-0.11
CATGAACA	0.0723
CCCGTTGC	-0.23

The list continues.

Sequence	PBM E-score
CATACTAA	0.195
CTGGGCAC	-0.189
ACTCCTCT	-0.128
CCGACGTC	-0.0154
TAGAGATA	0.0621
GACAGCAC	0.011
AGCGGGTC	-0.304
GACAGAAA	0.183
CAAAGAAG	-0.0377
CCATGGAG	-0.226
CCTAGCCA	-0.0764
ATATGGGA	0.0698
AAGAGAAC	0.0562
CTCACGAA	0.05
AGGAGGGG	-0.12
GCACATTA	0.0906
AACTCGCA	0.00632
AAATTGAA	0.144
AAGGAAAT	0.144
CGGCTTAC	0.148
ATCTGTCC	-0.0275
AAGAACAG	0.0639
AGTTGTAC	-0.0319
CGAGAGTC	-0.129
GTGCCGAA	-0.0809

Sequence	PBM E-score
AGGCAGGA	0.035
CGCAGCAG	-0.106
GATACCAA	0.134
CTTGACGA	-0.192
AAAGTATG	0.132
ACGTGGTA	0.0347
CAAAAAAG	0.147
AATAATAG	0.2
CTCGCAAC	0.0518
GCCTACGC	-0.1
CATCGCGC	-0.0016
GCCTAGAC	-0.206
CAGTATAA	0.249
AAACAGTC	-0.104
AGCGAATC	-0.0364
GATACTCC	-0.014
ACATTGCC	-0.0211
CGGGAGAG	-0.0876
TCGTTTCA	0.136
CGAGTCGA	0.022
ACTGGATA	0.248
CTTGCTAC	-0.0936
ATGTAGGG	-0.114
ACACTTAA	0.133
AACCCCGT	-0.0745

An excerpt of these results, as comma-separated lines.
Sequence,PBM E-score
AGTGTGTC,-0.0449
CGCAAGGA,0.0605
GGGCTATA,-0.226
ACACCCGT,-0.117

Remaining list, next part

Sequence	PBM E-score
TCTGCTAA	0.0116
ATTAATCC	0.0925
CCCACGCA	-0.00735
ACGTGGTC	-0.135
AGTTAATG	0.16
CCGCGACA	0.0599
ATTACCCC	-0.0176
GCAATCAA	0.178
TACAATGA	0.149
GGTGAGGA	-0.0317
CTAAATAA	0.155
CGGTCATA	0.119
AAGCACGT	0.137
TAGCAAGA	0.0496
GCTACTAC	0.255
ATTTGGAC	0.0526
AACATTCT	0.128
CTGGACAC	-0.158
AACTCGTG	0.125
AAACTGTT	0.117
CAGAAGAA	-0.155
ATGCGGCG	0.098
AATCCAGA	0.138
GTCCTGAA	-0.2
CTATTCCA	0.214

Sequence	PBM E-score
TCGGACGA	0.0215
ACTAAAAT	0.211
AGCAACTG	0.0754
GCGGGGTA	0.0182
AATCGCCC	-0.258
AGGATCAT	-0.0017
AGCCCGGG	-0.299
GAAGCCAA	-0.00454
AGAACTAC	0.0198
CACCGCTG	-0.222
ACCCGCTC	-0.269
GAATGCAC	0.0837
CACAAGAG	0.0322
ATGGATCG	-0.0129
GCTGCTCA	-0.135
CGCAAAGA	0.0887
ATTAATGC	0.216
GGCACTCA	-0.178
ATAGGGAA	-0.0165
CGACAAGA	0.077
ATCCTTCC	-0.188
CTCACTCA	0.0521
TGCGCGCA	0.0889
CAGCATGC	-0.00421
ATGGCTCG	0.00097

Sequence	PBM E-score
AATGGCAA	0.0484
AGACGCTA	-0.13
CCCGGAAG	-0.193
CCCGCCTC	-0.0693
CCGGACAG	0.0448
CATAGAGA	0.102
CAATTACA	0.221
ACCACCGC	-0.161
AATGACAC	0.195
CCTAGCAC	-0.159
GGTAGGAC	-0.225
AGGTCACG	-0.185
ATAGCGGC	-0.0582
ATATTAGC	0.177
CCAGATGG	-0.251
CCATCTAC	0.0346
CTCGACGC	0.0226
TAAGATTA	0.185
ACTATAGC	-0.117
CTGTACAC	0.0466
ACGTTCAC	0.0834
CGGAAATC	0.12
